Here are results for four molecules from publication PMC12148412.

By UniProt entry, the sequences of proteins in these tests, tags left out.
UniProt Q8R4B8: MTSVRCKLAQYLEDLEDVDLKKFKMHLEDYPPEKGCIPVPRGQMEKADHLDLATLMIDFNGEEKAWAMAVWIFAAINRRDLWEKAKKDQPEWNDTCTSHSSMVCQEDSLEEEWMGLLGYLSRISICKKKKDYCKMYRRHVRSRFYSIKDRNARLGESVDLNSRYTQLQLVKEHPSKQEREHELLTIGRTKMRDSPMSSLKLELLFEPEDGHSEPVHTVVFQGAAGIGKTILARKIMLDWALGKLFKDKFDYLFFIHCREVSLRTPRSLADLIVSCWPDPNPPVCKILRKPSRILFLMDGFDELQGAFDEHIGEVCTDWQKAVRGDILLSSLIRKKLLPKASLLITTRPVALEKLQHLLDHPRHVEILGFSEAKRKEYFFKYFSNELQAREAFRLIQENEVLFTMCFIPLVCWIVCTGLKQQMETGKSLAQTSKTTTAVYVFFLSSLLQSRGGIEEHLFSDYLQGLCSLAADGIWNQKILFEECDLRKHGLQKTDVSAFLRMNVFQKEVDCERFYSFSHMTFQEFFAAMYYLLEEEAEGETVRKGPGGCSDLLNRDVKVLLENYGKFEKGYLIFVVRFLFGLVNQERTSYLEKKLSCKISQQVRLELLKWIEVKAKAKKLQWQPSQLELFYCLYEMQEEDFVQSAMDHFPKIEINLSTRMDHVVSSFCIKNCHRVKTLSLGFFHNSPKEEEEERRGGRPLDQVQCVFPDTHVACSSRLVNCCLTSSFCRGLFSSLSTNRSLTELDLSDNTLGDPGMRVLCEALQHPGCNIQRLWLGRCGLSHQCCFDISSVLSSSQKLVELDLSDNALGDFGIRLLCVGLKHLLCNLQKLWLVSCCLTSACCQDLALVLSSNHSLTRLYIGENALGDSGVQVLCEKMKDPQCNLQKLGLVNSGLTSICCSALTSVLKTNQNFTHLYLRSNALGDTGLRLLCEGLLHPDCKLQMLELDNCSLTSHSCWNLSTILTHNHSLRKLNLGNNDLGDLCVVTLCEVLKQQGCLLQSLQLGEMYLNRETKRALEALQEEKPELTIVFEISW

Results are given in words; binding and its absence hold for the method and conditions named. Binding seen in cells or lysates may run through a third protein. Here binding means that the protein was enriched with, or labelled near, the bait; the list need not be complete.

The experiment has as its target NLR family pyrin domain containing 3 (NLRP3), endogenous in mouse BMDMs (mouse (endogenous in BMDM)) (UniProt Q8R4B8). Description: affinity purification with mass spectrometry; endogenous NLRP3 immunoprecipitated with NLRP3 antibody on protein A/G magnetic beads from lysates of BMDMs (LPS-primed, or LPS-primed and nigericin-stimulated); IgG control; washes with 100 and 500 mM NaCl IP buffer; SAINTexpress cutoff >= 0.9.

B1: FAM120A, endogenous in mouse BMDMs (protein, UniProt Q6A0A9 1-1112)
chain: MGVQGFQDYIEKHCPSAVVPVELQKLARGSLVGGGRQRPPQTPLRLLVDADNCLHRLYGGFYTDWVSGGQWNHMLGYLAALAKACFGGNIELFVFFNGALEKARLHEWVKRQGNERQTAQQIVSHVQNKGTPPPKVWFLPPVCMAHCIRLALIRFHVKVAQSIEDHHQEVIGFCRENGFHGLVAYDSDYALCNIPYYFSAHALKLSRNGKSLTTSQYLMHEVAKQLDLNPNRFPIFAALLGNHILPDEDLASFHWSLLGPEHPLASLKVRAHQLVLPPCDVVIKAVADYVRNIHDTSDLDAIAKDVFQHSQSRTDDKVIRFKRAVGYYSATSKPMPFHPPHYLARPNPFGMPGMVPPYVPPQMLNIPQTSLQAKPAVPQVPSPGGTPGQAPYPYSLSEPALTLDTSGKNLTEQNSYSNIPHEGKHTPLYERSSPINLAQSGSPNHVDSAYFPGSSTSSSSDNDEGGGGATNHISGNKIGWEKTGSHAEPLARGDPGDQVKVEGSSTASSGSQLAEGKGSHMGTVQPIPCLLSMPTRNHMDITTPPLPPVAPEVLRVAEHRHKKGLMYPYIFHILTKGEIKIAVSIEDEANKDLPPAALLYRPVRQYVYGVLFSLAESRKKTERLAFRKNRLPPEFSPLIIKEWAAYKGKSPQTPELVEALAFREWTCPNLKRLWLGKAVEDKNRRMRAFLACMRSDTPAMLNPANVPTHLMVLCCVLRYMVQWPGARILRRQELDAFLAQALSPKLYEPDQLQELKIDNLDPRGIQLSALFMSGVDMALFANDACGQPIPWEHCCPWMYFDGKLFQSKLLKASREKTPLIDLCDGQAEQAAKVEKMRQSILEGLSFSRQNHPLPFPPPPALPFYPASVYPRHFGPVPPSQGRGRGFAGVCGFGGHYGETVATGPYRAFRVTAASGHCGAFSGSDSSRTSKSQGGVQPIPSQGGKLEIAGTVVGHWAGSRRGRGGRGPFPLQVVSVGGPARGRPRGVISTPVIRTFGRGGRYYGRGYKSQGAIQGRPPYAASAEEVAKELKSKSGESKSSAVSLAENGVMAEEKPVPQLNGSTGDPRVPSHSESALNNDSKPCNTNPHLNALSTDSACRREAALEAAVLNKEE
On to B1, for which the binding result was “binds”.

B2: RAB32, endogenous in mouse BMDMs (protein, UniProt Q9CZE3 1-223)
chain: MAGEGLGQQGASATAAPETREHLFKVLVIGELGVGKTSIIKRYVHQLFSQHYRATIGVDFALKVLNWDSRTLVRLQLWDIAGQERFGNMTRVYYKEALGAFVVFDISRSSTFDAVLKWKNDLDSKVHLPNGSPIPAVLLANKCDQKKDNSQSPSQMDQFCKDHGFTGWFETSAKDNINIDEATRFLVENMLANQQSFPSEEIDLDRIKLVEEPPTTKPRSQCC
For the molecule B2, the binding entry is “binds”.

B3: OAS1A, endogenous in mouse BMDMs (protein, UniProt P11928 1-367)
chain: MEHGLRSIPAWTLDKFIEDYLLPDTTFGADVKSAVNVVCDFLKERCFQGAAHPVRVSKVVKGGSSGKGTTLKGKSDADLVVFLNNLTSFEDQLNRRGEFIKEIKKQLYEVQHERRFRVKFEVQSSWWPNARSLSFKLSAPHLHQEVEFDVLPAFDVLGHVNTSSKPDPRIYAILIEECTSLGKDGEFSTCFTELQRNFLKQRPTKLKSLIRLVKHWYQLCKEKLGKPLPPQYALELLTVFAWEQGNGCYEFNTAQGFRTVLELVINYQHLRIYWTKYYDFQHQEVSKYLHRQLRKARPVILDPADPTGNVAGGNPEGWRRLAEEADVWLWYPCFIKKDGSRVSSWDVPTVVPVPFEQVEENWTCILL
Take B3: the binding entry is on record as “binds”.

B4: ABHD12, endogenous in mouse BMDMs (protein, UniProt Q99LR1 1-398)
chain: MRKRTEPVTLEHERCAASGSSSSGSAAAALDADCSLKQNLRLAGKGTAEPHSASDAGMKRALGRRKSLWFRLRKILLCVLGFYIAIPFLVKLCPGIQAKLIFLNFVRVPYFIDLKKPQDQGLNHTCNYYLQPEDDVTIGVWHTIPSVWWKNAQGKDQMWYEDALASNHAIILYLHGNAGTRGGDHRVELYKVLSSLGYHVVTFDYRGWGDSVGTPSERGMTYDALHVFDWIKARSGDNPVYIWGHSLGTGVATNLVRRLCERETPPDALILESPFTNIREEAKSHPFSVIYRYFPGFDWFFLDPITSSGIKFANDENMKHISCPLLILHAEDDPVVPFHLGRKLYNIAAPSRSFRDFKVQFIPFHSDLGYRHKYIYKSPELPRILREFLGKSEPERQH
Regarding B4, the binding result is listed as “binds”.
